Source: publication PMC8989874
Results are given in words; binding and its absence hold for the method and conditions named. Binding seen in cells or lysates may run through a third protein. Binding can be weak; no strength is given. Tags and fused reporters may be left off the sequences shown.

Tests used:
[1] = biological target: T1, RhopH2-HA (P. falciparum) (UniProt C0H571); experiment: co-IP; RhopH2-HA immunoprecipitated with anti-HA 3F10 from saponin pellets of free merozoites and early trophozoites lysed in 20 mM HEPES, 150 mM NaCl, 2% DDM, pH 7.2; eluted with 0.5% SDS at 95 °C; immunoblot for RhopH3 and Clag3
T1 sequence: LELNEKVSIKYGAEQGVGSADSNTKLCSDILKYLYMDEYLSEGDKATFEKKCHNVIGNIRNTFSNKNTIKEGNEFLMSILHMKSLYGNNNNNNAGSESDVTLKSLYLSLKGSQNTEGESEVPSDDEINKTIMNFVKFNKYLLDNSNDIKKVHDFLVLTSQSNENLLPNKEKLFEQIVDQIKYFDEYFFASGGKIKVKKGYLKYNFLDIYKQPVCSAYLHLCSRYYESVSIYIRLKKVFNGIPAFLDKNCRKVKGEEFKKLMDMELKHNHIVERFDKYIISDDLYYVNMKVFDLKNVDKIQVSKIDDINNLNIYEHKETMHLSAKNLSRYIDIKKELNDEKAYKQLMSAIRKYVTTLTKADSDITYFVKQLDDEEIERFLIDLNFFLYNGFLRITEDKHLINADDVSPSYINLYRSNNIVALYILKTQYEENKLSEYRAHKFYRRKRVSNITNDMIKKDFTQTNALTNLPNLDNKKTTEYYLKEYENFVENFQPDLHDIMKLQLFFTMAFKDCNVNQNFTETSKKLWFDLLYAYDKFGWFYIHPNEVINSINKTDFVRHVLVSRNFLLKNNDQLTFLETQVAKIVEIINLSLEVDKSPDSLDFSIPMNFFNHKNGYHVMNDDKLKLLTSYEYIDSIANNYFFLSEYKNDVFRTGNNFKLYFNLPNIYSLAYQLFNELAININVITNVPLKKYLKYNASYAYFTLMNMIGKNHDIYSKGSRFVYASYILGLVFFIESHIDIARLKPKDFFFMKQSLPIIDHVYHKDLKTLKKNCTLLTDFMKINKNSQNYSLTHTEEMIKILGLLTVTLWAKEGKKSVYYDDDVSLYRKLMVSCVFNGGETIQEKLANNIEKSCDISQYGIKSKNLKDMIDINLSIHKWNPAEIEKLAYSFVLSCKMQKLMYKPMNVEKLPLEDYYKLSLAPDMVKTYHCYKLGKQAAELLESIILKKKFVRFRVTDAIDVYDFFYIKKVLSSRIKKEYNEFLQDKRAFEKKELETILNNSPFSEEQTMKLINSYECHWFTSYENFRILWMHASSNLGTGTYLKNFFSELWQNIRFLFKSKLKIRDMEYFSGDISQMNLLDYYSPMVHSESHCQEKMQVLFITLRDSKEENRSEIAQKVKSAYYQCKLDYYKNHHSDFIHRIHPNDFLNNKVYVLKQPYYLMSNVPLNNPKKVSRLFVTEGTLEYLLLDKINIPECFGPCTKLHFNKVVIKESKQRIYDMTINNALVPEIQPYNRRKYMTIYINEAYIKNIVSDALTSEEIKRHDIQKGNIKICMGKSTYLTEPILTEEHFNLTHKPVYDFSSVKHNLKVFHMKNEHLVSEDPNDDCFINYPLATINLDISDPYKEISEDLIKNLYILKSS

[2] = biological target: T1, RhopH2-HA (P. falciparum); experiment: co-IP; RhopH2-HA immunoprecipitated with anti-HA 3F10 from very early rings (directly after invasion), lysed in 20 mM HEPES, 150 mM NaCl, 2% DDM, pH 7.2; eluted with 0.5% SDS at 95 °C; immunoblot for RhopH3 and Clag3

Question: Which results are given for Clag3?
Answer: binding [1]: binds; binding [2]: binds
